# At least one structure is not confirmed: it was looked up by name or label, or the drawing left a doubt.
# Test system: Porcine liver esterase (PLE)
# Experiment: Esterase-catalyzed hydrolysis of D609 prodrugs
# Assay type: in vitro ADME
# Settings: complete hydrolysis by esterase
# Experimental: FIG. 18A, FIG. 18B, FIG. 18C: Esterase-catalyzed hydrolysis of D609 prodrugs. Prodrugs (300 μM in 15% DMSO/PBS, pH 7.4), 1 (FIG. 18A), 2 (FIG. 18B) and 3 (FIG. 18C), were incubated at 37° C. in the presence of 0.1 unit/ml PLE. […] The data are presented as the mean±SEM of three independent assays.
# To determine the hydrolytic property of D609 prodrugs 1, 2, and 3 (300 μM in 15% DMSO/PBS, pH7.4), these prodrugs were incubated with 0.1 unit/ml PLE at 37° C. After various times during incubation, the rate of hydrolysis of these D609 prodrugs was monitored by HPLC analysis. […] The concentration of D609 (μM) was calculated based on a linear D609-DTNB standard curve. The pseudo-first-order plots for the hydrolysis of these prodrugs were constructed from the logarithm of remaining ester versus time (FIG. 18). The end points of the reaction (150 min) were defined as when the hydrolysis of these prodrugs was over 99% complete and the release of D609 reached plateau. The pseudo-first-order rate constant (Kobs) and T1/2 (=0.693/Kobs) were calculated based on the slope of the linear portion of the curve for each of these prodrugs and are presented in Table 1 (Gilmer et al., 2002).
structure (smiles),measurement,value
"CC(=O)OCSC(=S)OC1CC2CC1C1CCCC21 (stereo not shown) [Prodrug 1, S-methyleneoxyacetyl D609]",% D609 (molar recovery of D609),71%
